Results: PubChem BioAssay AID248 (DTP/NCI, 2004)
The list does not hold the whole screen: it gathers some chemical classes. Not every dose and run of a compound is shown. T/C gives the treated animals as a percentage of the vehicle group. For survival time, this PubChem deposit counts one and a half times the control or more as active, and values a quarter to a half above the control carry no call in these data; other NCI protocols may use other cut-offs. Schedules are NCI's codes, read here as Q, the interval in days (D) or hours (H), X, the number of doses. Some entries show no survivor count and are marked so; the dose need not have been tolerated. Some entries were tested several times; the values are given in rising order.

System: L1210 leukemia ip in BDF1 mice, survival T/C
Assay: NCI In Vivo Anticancer Drug Screen. Data for tumor model L1210 Leukemia (intraperitoneal) in B6D2F1 (BDF1) mice
Details: higher T/C = longer survival

CC(=O)OCC12CCC(C)=CC1OC1C(O)C(OC(C)=O)C2(C)C12CO2 (stereo not given)
T/C (T/C endpoint: mean survival time, dose: 2.0 mg/kg/injection, schedule: Q08DX002 (ip), vehicle: saline): 100 % of control [survivor count not shown]
T/C (T/C endpoint: mean survival time, dose: 3.2 mg/kg/injection, schedule: Q01DX009 (ip), vehicle: other): 101 % of control [survivor count not shown]
T/C (T/C endpoint: mean survival time, dose: 3.2 mg/kg/injection, schedule: Q01DX013 (im), vehicle: saline): 108 % of control [survivor count not shown]
T/C (T/C endpoint: mean survival time, dose: 3.2 mg/kg/injection, schedule: Q01DX013 (ip), vehicle: saline): 144 % of control [survivor count not shown]
T/C (T/C endpoint: mean survival time, dose: 3.2 mg/kg/injection, schedule: Q01DX013 (oral), vehicle: saline): 151 % of control [survivor count not shown]
T/C (T/C endpoint: mean survival time, dose: 3.2 mg/kg/injection, schedule: Q01DX013 (sc), vehicle: saline): 101 % of control [survivor count not shown]
T/C (T/C endpoint: mean survival time, dose: 4.0 mg/kg/injection, schedule: Q01DX001 (ip), vehicle: saline, evaluated on day 30): 118 % of control [survivor count not shown]
T/C (T/C endpoint: mean survival time, dose: 4.0 mg/kg/injection, schedule: Q01DX001 (ip), vehicle: saline, evaluated on day 60): 107 % of control [survivor count not shown]
T/C (T/C endpoint: mean survival time, dose: 4.0 mg/kg/injection, schedule: Q01DX001 (oral), vehicle: saline): 106 % of control [survivor count not shown]
T/C (T/C endpoint: mean survival time, dose: 4.0 mg/kg/injection, schedule: Q01DX001 (sc), vehicle: saline): 113 % of control [survivor count not shown]
T/C (T/C endpoint: mean survival time, dose: 4.0 mg/kg/injection, schedule: Q01DX009 (ip), vehicle: saline, evaluated on day 30): 127 % of control [survivor count not shown]
T/C (T/C endpoint: mean survival time, dose: 4.0 mg/kg/injection, schedule: Q01DX009 (ip), vehicle: saline, evaluated on day 60): 141 % of control [survivor count not shown]
T/C (T/C endpoint: mean survival time, dose: 4.0 mg/kg/injection, schedule: Q01DX009 (sc), vehicle: saline): 115 % of control [survivor count not shown]
T/C (T/C endpoint: mean survival time, dose: 4.0 mg/kg/injection, schedule: Q02DX005 (ip), vehicle: saline): 127 % of control [survivor count not shown]
T/C (T/C endpoint: mean survival time, dose: 4.0 mg/kg/injection, schedule: Q03DX003 (ip), vehicle: other): 96 % of control [survivor count not shown]
T/C (T/C endpoint: mean survival time, dose: 4.0 mg/kg/injection, schedule: Q04DX003 (ip), vehicle: saline, evaluated on day 30): 120 % of control [survivor count not shown]
T/C (T/C endpoint: mean survival time, dose: 4.0 mg/kg/injection, schedule: Q04DX003 (ip), vehicle: saline, evaluated on day 60): 100 % of control [survivor count not shown]
T/C (T/C endpoint: mean survival time, dose: 4.0 mg/kg/injection, schedule: Q05DX001 (ip), vehicle: saline): 111 % of control [survivor count not shown]
T/C (T/C endpoint: mean survival time, dose: 4.0 mg/kg/injection, schedule: Q08DX002 (ip), vehicle: saline): 114 % of control [survivor count not shown]
T/C (T/C endpoint: mean survival time, dose: 4.7 mg/kg/injection, schedule: Q01DX009 (ip), vehicle: saline with Tween-80): 136 % of control [survivor count not shown]
T/C (T/C endpoint: mean survival time, dose: 6.4 mg/kg/injection, schedule: Q01DX013 (im), vehicle: saline): 94 % of control [survivor count not shown]
T/C (T/C endpoint: mean survival time, dose: 6.4 mg/kg/injection, schedule: Q01DX013 (ip), vehicle: saline): 116 % of control [survivor count not shown]
T/C (T/C endpoint: mean survival time, dose: 7.0 mg/kg/injection, schedule: Q01DX009 (ip), vehicle: saline with Tween-80): 132 % of control [survivor count not shown]
T/C (T/C endpoint: mean survival time, dose: 8.0 mg/kg/injection, schedule: Q01DX001 (ip), vehicle: saline, evaluated on day 30): 113 % of control [survivor count not shown]
T/C (T/C endpoint: mean survival time, dose: 8.0 mg/kg/injection, schedule: Q01DX001 (ip), vehicle: saline, evaluated on day 60): 109 % of control [survivor count not shown]
T/C (T/C endpoint: mean survival time, dose: 8.0 mg/kg/injection, schedule: Q01DX001 (oral), vehicle: saline): 108 % of control [survivor count not shown]
T/C (T/C endpoint: mean survival time, dose: 8.0 mg/kg/injection, schedule: Q01DX009 (ip), vehicle: acetone): 105 % of control [survivor count not shown]
T/C (T/C endpoint: mean survival time, dose: 8.0 mg/kg/injection, schedule: Q01DX009 (ip), vehicle: saline): 118 % of control [survivor count not shown]
T/C (T/C endpoint: mean survival time, dose: 8.0 mg/kg/injection, schedule: Q01DX009 (sc), vehicle: saline): 90 % of control [survivor count not shown]
T/C (T/C endpoint: mean survival time, dose: 8.0 mg/kg/injection, schedule: Q02DX005 (ip), vehicle: saline): 127 % of control [survivor count not shown]
T/C (T/C endpoint: mean survival time, dose: 8.0 mg/kg/injection, schedule: Q04DX003 (ip), vehicle: saline, evaluated on day 30): 122 % of control [survivor count not shown]
T/C (T/C endpoint: mean survival time, dose: 8.0 mg/kg/injection, schedule: Q04DX003 (ip), vehicle: saline, evaluated on day 60): 103 % of control [survivor count not shown]
T/C (T/C endpoint: mean survival time, dose: 8.0 mg/kg/injection, schedule: Q04DX003 (oral), vehicle: saline): 141 % of control [survivor count not shown]
T/C (T/C endpoint: mean survival time, dose: 8.0 mg/kg/injection, schedule: Q05DX001 (ip), vehicle: saline): 111 % of control [survivor count not shown]
T/C (T/C endpoint: mean survival time, dose: 8.0 mg/kg/injection, schedule: Q08DX002 (ip), vehicle: saline): 111 % of control [survivor count not shown]
T/C (T/C endpoint: mean survival time, dose: 10.5 mg/kg/injection, schedule: Q01DX009 (ip), vehicle: saline with Tween-80): 111 % of control [survivor count not shown]
T/C (T/C endpoint: mean survival time, dose: 62.5 micrograms/kg/injection, schedule: Q03HX008 (ip), vehicle: saline): 105 % of control [survivor count not shown]
T/C (T/C endpoint: mean survival time, dose: 62.5 micrograms/kg/injection, schedule: Q03HX016 (ip), vehicle: saline): 100 % of control [survivor count not shown]
T/C (T/C endpoint: mean survival time, dose: 125.0 micrograms/kg/injection, schedule: Q03HX008 (ip), vehicle: saline): 114 % of control [survivor count not shown]
T/C (T/C endpoint: mean survival time, dose: 125.0 micrograms/kg/injection, schedule: Q03HX016 (ip), vehicle: saline): 109 % of control [survivor count not shown]
T/C (T/C endpoint: mean survival time, dose: 125.0 micrograms/kg/injection, schedule: Q03HX024 (ip), vehicle: saline): 112 % of control [survivor count not shown]
T/C (T/C endpoint: mean survival time, dose: 250.0 micrograms/kg/injection, schedule: Q03HX008 (ip), vehicle: saline): 109 % of control [survivor count not shown]
T/C (T/C endpoint: mean survival time, dose: 250.0 micrograms/kg/injection, schedule: Q03HX016 (ip), vehicle: saline): 117 % of control [survivor count not shown]
T/C (T/C endpoint: mean survival time, dose: 250.0 micrograms/kg/injection, schedule: Q03HX024 (ip), vehicle: saline): 115 % of control [survivor count not shown]
T/C (T/C endpoint: mean survival time, dose: 500.0 micrograms/kg/injection, schedule: Q03HX008 (ip), vehicle: saline): 116 % of control [survivor count not shown]
T/C (T/C endpoint: mean survival time, dose: 500.0 micrograms/kg/injection, schedule: Q03HX016 (ip), vehicle: saline): 123 % of control [survivor count not shown]
T/C (T/C endpoint: mean survival time, dose: 500.0 micrograms/kg/injection, schedule: Q03HX024 (ip), vehicle: saline): 135 % of control [survivor count not shown]
T/C (T/C endpoint: mean survival time, dose: 1000.0 micrograms/kg/injection, schedule: Q03HX024 (ip), vehicle: saline): 142 % of control [survivor count not shown]
T/C (T/C endpoint: median survival time, dose: 0.05 mg/kg/injection, schedule: Q01DX009 (ip), vehicle: saline): 100 [survivor count not shown] and 105 % of control [survivor count not shown]
T/C (T/C endpoint: median survival time, dose: 0.1 mg/kg/injection, schedule: Q01DX009 (ip), vehicle: saline): 110 [survivor count not shown] and 157 % of control [survivor count not shown]
T/C (T/C endpoint: median survival time, dose: 0.2 mg/kg/injection, schedule: Q01DX009 (ip), vehicle: saline): 115 % of control [survivor count not shown]
T/C (T/C endpoint: median survival time, dose: 0.4 mg/kg/injection, schedule: Q01DX009 (ip), vehicle: saline): 110 [survivor count not shown] and 135 % of control [survivor count not shown]
T/C (T/C endpoint: median survival time, dose: 0.5 mg/kg/injection, schedule: Q01DX009 (ip), vehicle: saline, evaluated on day 5): 115 % of control [survivor count not shown]
T/C (T/C endpoint: median survival time, dose: 0.5 mg/kg/injection, schedule: Q01DX009 (ip), vehicle: saline, evaluated on day 19): 110 % of control [survivor count not shown]
T/C (T/C endpoint: median survival time, dose: 0.5 mg/kg/injection, schedule: Q01DX009 (ip), vehicle: saline, evaluated on day 30): 110 % of control [survivor count not shown]
T/C (T/C endpoint: median survival time, dose: 0.8 mg/kg/injection, schedule: Q01DX009 (ip), vehicle: saline): 126 [survivor count not shown] and 135 % of control [survivor count not shown]
T/C (T/C endpoint: median survival time, dose: 1.0 mg/kg/injection, schedule: Q01DX009 (ip), vehicle: saline, evaluated on day 5): 120 % of control [survivor count not shown]
T/C (T/C endpoint: median survival time, dose: 1.0 mg/kg/injection, schedule: Q01DX009 (ip), vehicle: saline, evaluated on day 19): 126 % of control [survivor count not shown]
T/C (T/C endpoint: median survival time, dose: 1.0 mg/kg/injection, schedule: Q01DX009 (ip), vehicle: saline, evaluated on day 30): 120 % of control [survivor count not shown]
T/C (T/C endpoint: median survival time, dose: 1.6 mg/kg/injection, schedule: Q01DX009 (ip), vehicle: saline): 142 [survivor count not shown] and 157 % of control [survivor count not shown]
T/C (T/C endpoint: median survival time, dose: 2.0 mg/kg/injection, schedule: Q01DX009 (ip), vehicle: saline, evaluated on day 5): 121 % of control [survivor count not shown]
T/C (T/C endpoint: median survival time, dose: 2.0 mg/kg/injection, schedule: Q01DX009 (ip), vehicle: saline, evaluated on day 19): 136 % of control [survivor count not shown]
T/C (T/C endpoint: median survival time, dose: 2.0 mg/kg/injection, schedule: Q01DX009 (ip), vehicle: saline, evaluated on day 30): 105 % of control [survivor count not shown]
T/C (T/C endpoint: median survival time, dose: 2.0 mg/kg/injection, schedule: Q04DX003 (ip), vehicle: saline): 108 % of control [survivor count not shown]
T/C (T/C endpoint: median survival time, dose: 4.0 mg/kg/injection, schedule: Q01DX009 (ip), vehicle: saline, evaluated on day 19): 100 % of control [survivor count not shown]
T/C (T/C endpoint: median survival time, dose: 4.0 mg/kg/injection, schedule: Q04DX003 (ip), vehicle: saline, evaluated on day 35): 109 % of control [survivor count not shown]
T/C (T/C endpoint: median survival time, dose: 4.0 mg/kg/injection, schedule: Q04DX003 (ip), vehicle: saline, evaluated on day 60): 117 % of control [survivor count not shown]
T/C (T/C endpoint: median survival time, dose: 8.0 mg/kg/injection, schedule: Q04DX003 (ip), vehicle: saline, evaluated on day 35): 111 % of control [survivor count not shown]
T/C (T/C endpoint: median survival time, dose: 8.0 mg/kg/injection, schedule: Q04DX003 (ip), vehicle: saline, evaluated on day 60): 120 % of control [survivor count not shown]
T/C (T/C endpoint: median survival time, dose: 16.0 mg/kg/injection, schedule: Q04DX003 (ip), vehicle: saline): 126 % of control [survivor count not shown]
